# Key:
# [1] = type: in vivo; conditions: mouse hot plate
# Method: (§1) The analgesic action was detected in mouse, rat, guinea pig and dog. The mouse was subjected to hot plate and writhing tests; the rat to tail-flick and paw-pressure tests; the guinea pig to paw-pressure test only; the dog to the test described by Vainio et al. [J. Vet. Pharmacol. Ther., 12, 225-231 (1989)] using an electric stimulation. Consequently, the claimed compounds were tested with pain being induced by stimuli of different nature: thermal (hot plate and tail flick), chemical (writhing by acetic acid), mechanical (paw pressure) and electrical (cutaneous stimulation).
# Potency, efficacy and toxicity of SM21, PG9 and SM32 in comparison with
# four principal reference analgesic drugs tested in mouse. As analgesic
# [2] = rat tail-flick test; type: in vivo
# Method: as §1
# (§2) As already mentioned, the claimed products were assayed also in rat by the paw-pressure and tail-flick tests.
# (§3) Both tests were carried out with the max. doses not impairing the rats normal behaviour. In fact, no difference in behaviour appeared on observation, to the extent that researchers, who were unaware of the treatment received by the animals, were unable to distinguish among the various groups. The painful stimulus utilized in the paw-pressure test involved the animal consciousness to a much greater extent than the stimulus used in the tail-flick test, in fact, the type and anatomic localization of the latter mainly involved a spinal response.
# (§4) Both tests on rats were carried out with the max. doses not altering the behaviour of the treated animals. […]
# [3] = rat paw-pressure test; type: in vivo
# Method: as §1, §2, §3, §4
# [4] = mouse, in vivo
# Method: In FIGS. 7 and 7 bis vertical lines give s.e. mean. Each column represents the mean of 6-10 mice. SM-21 maleate, PG-9 maleate, SM-32 oxalate, cocaine HCl, amphetamine sulphate and caffeine were administered 15 min before test.
# [5] = mouse acetic acid writhing test; type: in vivo; conditions: 8 mg/kg s.c.
# Method: as §1
# The claimed molecules, chosen as examples, were also assayed in mice by the writhing test (Table 4). The test is meant to evaluate the products capability to prevent mice writhes ensuing abdominal pains caused by i.p. injection of a 0.6% aqueous solution of acetic acid.
# Acetic acid solution = 0.6% v/v.
smiles,measurement,setting,value
CN1CC[C@]23c4c5ccc(O)c4O[C@H]2[C@@H](O)C=C[C@H]3[C@H]1C5.Cl [Morphine HCl],analgesic efficacy / degree of analgesia compared with claimed compounds,[1],"lower than that of SM-21, PG-9, and SM-32"
same,"activity in tail-flick test, in words",[2],most active compound
same,"activity in paw-pressure test, in words",[3],most active compound
same,motor activity and curiosity (exploration activity),[4],remarkably increase the motor activity
same,percent inhibition,[5],74.8%
